Measurements published in PubChem BioAssay (EPA / NIEHS).
The inconclusive results got no clear call from the source; some entries with a clear call stand among them for comparison. Potencies beside an inconclusive call are fits to weak or partial responses and may not hold up. The source made the active and inactive calls. How the source made its calls: active means hit-call score of the fitted dose curve at least 0.9, where 1 is the maximum; inconclusive means response in the unintended direction; inactive means score below 0.9.

The chains behind the UniProt entries cited, without tags or fusion partners.
UniProt P03372, whole entry, looked up: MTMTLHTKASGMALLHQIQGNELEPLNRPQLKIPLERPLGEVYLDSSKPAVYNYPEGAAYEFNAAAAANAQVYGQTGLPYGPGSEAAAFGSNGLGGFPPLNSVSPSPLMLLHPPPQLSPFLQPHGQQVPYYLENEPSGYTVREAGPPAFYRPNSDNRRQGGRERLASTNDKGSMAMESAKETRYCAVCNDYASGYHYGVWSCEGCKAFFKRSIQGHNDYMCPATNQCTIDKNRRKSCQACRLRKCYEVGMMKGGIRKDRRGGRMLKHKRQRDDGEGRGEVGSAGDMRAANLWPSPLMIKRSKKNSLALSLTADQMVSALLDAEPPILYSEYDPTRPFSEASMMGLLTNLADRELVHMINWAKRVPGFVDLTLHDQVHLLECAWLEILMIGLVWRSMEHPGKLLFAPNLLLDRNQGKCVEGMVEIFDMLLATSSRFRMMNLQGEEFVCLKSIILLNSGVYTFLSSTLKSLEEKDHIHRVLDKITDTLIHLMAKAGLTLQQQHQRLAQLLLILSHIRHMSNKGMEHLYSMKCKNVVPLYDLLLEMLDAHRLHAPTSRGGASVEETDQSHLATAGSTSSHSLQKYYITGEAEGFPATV

Target: Estrogen receptor (Homo sapiens) (UniProt P03372)
Test: CCTE_Deisenroth_AIME_384WELL_LUC_Inactive: CCTE's 384-well Estrogen Receptor Transactivation Assay without AIME metabolic competence (ERTA luciferase; metabolism negative), Deisenroth Lab (AID 2284038);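 further: hits raise estrogen receptor luciferase signal so potencies reflect agonists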
Description: CCTE_Deisenroth_AIME_384WELL (AIME metabolism assay) is a cell-based, single-readout assay that uses VM7Luc4E2, a human mammary gland/breast cell line, with measurements taken at 24 hour after chemical dosing in a 384-well plate.CCTE_Deisenroth_AIME_384WELL_LUC_Inactive is one of four assay components measured or calculated from the CCTE_Deisenroth_AIME_384WELL assay. It is designed to make measurements of luciferase induction, a form of inducible reporter, as detected with bioluminescence signals by luciferase-coupled ATP quantitation technology.CCTE_Deisenroth_AIME_384WELL_LUC_Inactive is a component of the CCTE_Deisenroth_AIME_384WELL assay that measures the effect of retroftting the VM7Luc ERTA assay with the Alginate Immobolization of Metabolic Enzymes (AIME) metabolism method. AIME is optimized to impart phase I hepatic metabolism using phenobarbital/beta-naphthoflavone induced hepatic S9 from male Sprague Dawley rats. Parent chemicals are incubated for 2 hours in the AIME assay prior to transfer to the VM7Luc ERTA assay plate. […] This endpoint evaluates reporter induction in metabolism negative mode. Using a type of inducible reporter in VM7Luc cells, gain-of-signal activity can be used to understand changes in the reporter gene as they relate to xenobiotic metabolism and the gene ESR1. This assay endpoint, CCTE_Deisenroth_AIME_384WELL_LUC_Inactive, was analyzed in the positive analysis fitting direction relative to 17beta-estradiol as the positive control in the ERTA assay. To generalize the intended target to other relatable targets, this assay endpoint is annotated to the nuclear receptor intended target family, where the subfamily is steroidal.
The AIME procedure consists of a preparative "pre-stamping" step using a barium chloride/poly-L-lysine (PLL) solution followed by "stamping" the lid in alginate-hepatic S9 (metabolism positive) or alginate-water (metabolism negative) to form microspheres. Once stamping is completed, the AIME lids are placed in duplicate microplates (metabolism positive or negative) containing chemical solutions and incubated for two hours to facilitate metabolic reactions. The conditioned medium, containing parent chemical or metabolites, is then transferred to the cell-based VM7Luc Estrogen Receptor Transactivation Assay (ERTA) for 24 hours. A typical experimental design tests a 10-point concentration series (0.002 - 200 uM) for 8 compounds (96-well format)1 or 32 compounds (384-well format)2 in single technical replicate. AIME assay controls include trans-stilbene (bioactivated control) and ethylparaben (bioinactivated control). ERTA assay plate controls include 17-beta estradiol (positive control) and DMSO (solvent control). Experiments typically comprise a minimum of four experimental replicates (n=4).

AC50, inconclusive:
CCCC[N+](C)(CCCC)CCCC 0.0824 µM
CCN(CC)C(=S)SSC(=S)N(CC)CC 182 µM
CC(C)(C)NC(=O)[C@H]1CC[C@H]2[C@@H]3CC[C@H]4NC(=O)C=C[C@]4(C)[C@H]3CC[C@]12C 161 µM
O=C(O)c1cc(O)c2ccccc2c1O 43.9 µM
CCN=C1C=CC(=C(c2ccc(N(CC)CC)cc2)c2ccc(N(CC)CC)cc2)c2ccccc21 2.19 µM
CCCCCCCC/C=C\CCCCCCCC(=O)N(C)CC(=O)O 19.8 µM
O=C(Nc1ccc([N+](=O)[O-])cc1Cl)c1cc(Cl)ccc1O 2.95 µM
CCCCCCCCCCCCN1CCCC1=O 108 µM
C=CCc1cc(S(=O)(=O)c2ccc(O)c(CC=C)c2)ccc1O 176 µM
CC(C)(C)c1ccc(O)c(C(C)(C)C)c1 114 µM

Two compounds drawn at random from those above, as already listed:
AC50, inconclusive:
CCCCCCCC/C=C\CCCCCCCC(=O)N(C)CC(=O)O 19.8 µM
CCCC[N+](C)(CCCC)CCCC 0.0824 µM

Next part.

outcome, inactive:
CC(=O)c1ccccc1
